Assay results taken from paper PMC6949295 (2020).

Chains of the proteins cited; added tags and fusions are not shown.
UniProt Q9UPT5: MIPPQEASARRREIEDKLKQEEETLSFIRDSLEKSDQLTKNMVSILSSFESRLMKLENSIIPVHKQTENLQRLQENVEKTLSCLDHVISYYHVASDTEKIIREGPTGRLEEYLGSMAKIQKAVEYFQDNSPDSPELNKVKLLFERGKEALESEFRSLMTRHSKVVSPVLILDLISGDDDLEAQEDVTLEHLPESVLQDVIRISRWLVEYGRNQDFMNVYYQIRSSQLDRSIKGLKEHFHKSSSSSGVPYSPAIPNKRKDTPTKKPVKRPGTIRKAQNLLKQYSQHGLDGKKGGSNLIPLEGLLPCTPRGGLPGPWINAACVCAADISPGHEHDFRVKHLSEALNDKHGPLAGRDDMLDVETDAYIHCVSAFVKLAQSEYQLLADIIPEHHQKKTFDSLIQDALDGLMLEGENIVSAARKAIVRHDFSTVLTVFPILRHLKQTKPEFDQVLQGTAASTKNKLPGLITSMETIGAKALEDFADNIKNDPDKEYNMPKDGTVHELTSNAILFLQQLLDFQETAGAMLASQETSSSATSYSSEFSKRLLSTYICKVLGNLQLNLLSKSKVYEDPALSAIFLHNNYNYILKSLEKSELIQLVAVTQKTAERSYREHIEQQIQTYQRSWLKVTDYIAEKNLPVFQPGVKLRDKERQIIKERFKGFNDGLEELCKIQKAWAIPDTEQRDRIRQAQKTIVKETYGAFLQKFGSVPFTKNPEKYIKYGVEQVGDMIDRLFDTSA

Molecular target: T1, HA-ULK1 (UniProt O75385)
T1 sequence: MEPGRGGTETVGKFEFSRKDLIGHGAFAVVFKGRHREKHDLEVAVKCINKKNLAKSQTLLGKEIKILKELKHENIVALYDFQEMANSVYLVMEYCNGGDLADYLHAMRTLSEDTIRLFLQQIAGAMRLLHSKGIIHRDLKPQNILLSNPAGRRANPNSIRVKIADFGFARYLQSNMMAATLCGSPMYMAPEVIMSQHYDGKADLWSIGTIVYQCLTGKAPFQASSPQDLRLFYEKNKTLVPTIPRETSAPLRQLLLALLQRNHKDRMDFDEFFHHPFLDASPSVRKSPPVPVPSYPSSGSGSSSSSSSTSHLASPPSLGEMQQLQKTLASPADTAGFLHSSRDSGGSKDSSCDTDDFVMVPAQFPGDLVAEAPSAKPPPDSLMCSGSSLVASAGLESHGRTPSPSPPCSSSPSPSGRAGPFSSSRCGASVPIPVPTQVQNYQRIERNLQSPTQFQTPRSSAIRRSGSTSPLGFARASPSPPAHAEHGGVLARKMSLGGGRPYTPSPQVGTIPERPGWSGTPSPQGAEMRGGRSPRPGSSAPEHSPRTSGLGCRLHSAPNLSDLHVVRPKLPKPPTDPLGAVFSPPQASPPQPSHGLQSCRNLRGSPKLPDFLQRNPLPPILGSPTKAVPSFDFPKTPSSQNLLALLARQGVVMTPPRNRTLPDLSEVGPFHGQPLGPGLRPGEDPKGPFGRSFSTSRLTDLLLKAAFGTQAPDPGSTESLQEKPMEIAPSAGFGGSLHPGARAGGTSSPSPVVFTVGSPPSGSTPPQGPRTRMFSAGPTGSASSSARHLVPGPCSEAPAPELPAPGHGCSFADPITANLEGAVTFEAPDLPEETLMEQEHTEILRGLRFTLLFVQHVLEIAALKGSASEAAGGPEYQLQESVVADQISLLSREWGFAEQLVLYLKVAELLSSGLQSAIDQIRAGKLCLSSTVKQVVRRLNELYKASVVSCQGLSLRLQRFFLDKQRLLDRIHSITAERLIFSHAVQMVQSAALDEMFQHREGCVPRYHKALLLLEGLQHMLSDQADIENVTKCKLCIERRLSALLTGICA
Test: affinity purification with mass spectrometry; immunoprecipitation from cells expressing HA-tagged ULK1 against the vector control; co-precipitated proteins analysed by mass spectrometry; cell line not stated

binding: binds
Substance: endogenous Exo70 (from UniProt Q9UPT5 1-735)

Results are given in words; binding and its absence hold for the method and conditions named. Binding seen in cells or lysates may run through a third protein. These calls come from enrichment with a bait or labelling near it, and not all partners need be listed. Sequences can lack the tags named with a protein.
